Results are given in words; binding and its absence hold for the method and conditions named. In cells and extracts the contact can be indirect. These calls come from enrichment with a bait or labelling near it, and not all partners need be listed.
B1: NonO/p54^nrb (bovine retina) (protein, UniProt Q2KJ42 1-470)
chain: MQSNKTFNLEKQNHTPRKHHQHHHQQHHQQQQQQPPPPPMPANGQQASSQNEGLTIDLKNFRKPGEKTFTQRSRLFVGNLPPDITEEEMRKLFEKYGKAGEVFIHKDKGFGFIRLETRTLAEIAKVELDNMPLRGKQLRVRFACHSASLTVRNLPQYVSNELLEEAFSVFGQVERAVVIVDDRGRPSGKGIVEFSGKPAARKALDRCSEGSFLLTTFPRPVTVEPMDQLDDEEGLPEKLVIKNQQFHKEREQPPRFAQPGSFEYEYAMRWKALIEMEKQQQDQVDRNIKEAREKLEMEMEAARHEHQVMLMRQDLMRRQEELRRMEELHNQEVQKRKQLELRQEEERRRREEEMRRQQEEMMRRQQEGFKGTFPDAREQEIRMGQMAMGGAMGINNRGAMPPAPVPAGTPAPPGPATMMPDGTLGLTPPTTERFGQAATMEGIGAIGGTPPAFNRAAPGAEFAPNKRRRY

By UniProt entry, the sequences of proteins in these tests, tags left out.
UniProt P54845: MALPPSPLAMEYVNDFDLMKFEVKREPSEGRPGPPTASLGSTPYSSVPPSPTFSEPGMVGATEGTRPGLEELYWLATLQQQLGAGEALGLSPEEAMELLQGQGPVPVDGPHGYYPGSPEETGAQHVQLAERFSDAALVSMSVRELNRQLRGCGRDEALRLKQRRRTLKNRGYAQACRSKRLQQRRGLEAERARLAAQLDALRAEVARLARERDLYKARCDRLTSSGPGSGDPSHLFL
UniProt P09867: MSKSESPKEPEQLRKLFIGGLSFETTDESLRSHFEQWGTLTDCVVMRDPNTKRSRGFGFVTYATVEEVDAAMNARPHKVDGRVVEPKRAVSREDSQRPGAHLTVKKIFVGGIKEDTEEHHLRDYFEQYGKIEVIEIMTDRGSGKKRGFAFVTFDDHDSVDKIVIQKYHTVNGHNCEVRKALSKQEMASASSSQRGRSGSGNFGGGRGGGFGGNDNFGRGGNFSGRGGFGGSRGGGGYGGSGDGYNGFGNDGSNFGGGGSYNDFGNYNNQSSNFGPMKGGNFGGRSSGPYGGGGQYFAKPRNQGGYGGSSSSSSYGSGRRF
UniProt Q28141: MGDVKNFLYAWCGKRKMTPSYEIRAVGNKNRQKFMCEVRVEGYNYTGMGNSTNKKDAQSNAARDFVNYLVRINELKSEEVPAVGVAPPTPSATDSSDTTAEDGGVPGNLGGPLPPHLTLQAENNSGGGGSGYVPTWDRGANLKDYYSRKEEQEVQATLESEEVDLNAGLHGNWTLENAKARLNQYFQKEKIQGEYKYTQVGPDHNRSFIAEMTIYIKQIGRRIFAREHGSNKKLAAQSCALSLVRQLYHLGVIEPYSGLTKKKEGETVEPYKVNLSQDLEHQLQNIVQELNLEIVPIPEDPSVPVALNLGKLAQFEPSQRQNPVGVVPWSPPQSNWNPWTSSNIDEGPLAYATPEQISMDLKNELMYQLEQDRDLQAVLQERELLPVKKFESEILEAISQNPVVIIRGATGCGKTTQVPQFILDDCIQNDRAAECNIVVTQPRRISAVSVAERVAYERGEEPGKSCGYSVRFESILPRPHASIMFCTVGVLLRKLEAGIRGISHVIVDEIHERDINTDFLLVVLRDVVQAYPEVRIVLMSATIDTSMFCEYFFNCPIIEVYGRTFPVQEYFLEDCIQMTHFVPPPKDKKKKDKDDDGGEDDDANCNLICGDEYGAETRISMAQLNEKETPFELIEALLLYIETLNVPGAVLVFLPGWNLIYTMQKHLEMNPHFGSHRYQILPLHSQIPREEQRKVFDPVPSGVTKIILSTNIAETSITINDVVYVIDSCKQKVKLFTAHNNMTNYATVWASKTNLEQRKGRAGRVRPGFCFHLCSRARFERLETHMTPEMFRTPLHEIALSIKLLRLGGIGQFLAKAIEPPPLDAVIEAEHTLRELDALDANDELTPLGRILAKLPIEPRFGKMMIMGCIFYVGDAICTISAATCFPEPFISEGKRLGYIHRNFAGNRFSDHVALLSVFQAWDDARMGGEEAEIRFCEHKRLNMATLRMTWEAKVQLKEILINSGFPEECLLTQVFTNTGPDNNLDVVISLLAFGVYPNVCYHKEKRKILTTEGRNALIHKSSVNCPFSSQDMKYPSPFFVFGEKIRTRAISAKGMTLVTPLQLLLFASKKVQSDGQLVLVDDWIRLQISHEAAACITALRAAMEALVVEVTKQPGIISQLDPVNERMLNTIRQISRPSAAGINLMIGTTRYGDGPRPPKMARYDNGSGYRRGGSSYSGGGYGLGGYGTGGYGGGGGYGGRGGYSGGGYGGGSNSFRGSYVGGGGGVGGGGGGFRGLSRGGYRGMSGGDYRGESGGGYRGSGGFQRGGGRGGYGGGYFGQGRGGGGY
UniProt Q2HJ60: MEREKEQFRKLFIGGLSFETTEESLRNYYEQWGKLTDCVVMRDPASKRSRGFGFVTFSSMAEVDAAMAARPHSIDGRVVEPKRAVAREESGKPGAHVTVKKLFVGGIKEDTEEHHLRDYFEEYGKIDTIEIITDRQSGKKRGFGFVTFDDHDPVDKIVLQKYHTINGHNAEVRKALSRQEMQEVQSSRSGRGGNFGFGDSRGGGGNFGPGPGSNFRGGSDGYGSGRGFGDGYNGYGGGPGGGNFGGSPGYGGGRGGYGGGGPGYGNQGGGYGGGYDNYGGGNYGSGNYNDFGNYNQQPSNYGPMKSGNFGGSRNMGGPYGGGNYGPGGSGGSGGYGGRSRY
UniProt F1N4J1: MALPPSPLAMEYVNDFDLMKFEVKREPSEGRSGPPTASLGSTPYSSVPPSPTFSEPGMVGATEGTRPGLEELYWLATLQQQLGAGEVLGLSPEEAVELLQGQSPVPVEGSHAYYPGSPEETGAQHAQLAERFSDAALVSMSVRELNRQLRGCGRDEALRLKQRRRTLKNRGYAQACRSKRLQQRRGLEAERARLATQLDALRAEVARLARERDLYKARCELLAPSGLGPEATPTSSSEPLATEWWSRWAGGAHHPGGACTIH
UniProt Q9XSK0: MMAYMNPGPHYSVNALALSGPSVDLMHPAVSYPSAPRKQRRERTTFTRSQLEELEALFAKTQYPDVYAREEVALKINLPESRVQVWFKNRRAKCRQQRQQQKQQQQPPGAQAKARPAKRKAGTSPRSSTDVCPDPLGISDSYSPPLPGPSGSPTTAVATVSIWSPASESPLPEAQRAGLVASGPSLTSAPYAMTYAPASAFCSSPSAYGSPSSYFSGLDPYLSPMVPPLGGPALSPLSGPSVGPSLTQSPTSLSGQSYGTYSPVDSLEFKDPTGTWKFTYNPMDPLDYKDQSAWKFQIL
UniProt A0A3Q1M155: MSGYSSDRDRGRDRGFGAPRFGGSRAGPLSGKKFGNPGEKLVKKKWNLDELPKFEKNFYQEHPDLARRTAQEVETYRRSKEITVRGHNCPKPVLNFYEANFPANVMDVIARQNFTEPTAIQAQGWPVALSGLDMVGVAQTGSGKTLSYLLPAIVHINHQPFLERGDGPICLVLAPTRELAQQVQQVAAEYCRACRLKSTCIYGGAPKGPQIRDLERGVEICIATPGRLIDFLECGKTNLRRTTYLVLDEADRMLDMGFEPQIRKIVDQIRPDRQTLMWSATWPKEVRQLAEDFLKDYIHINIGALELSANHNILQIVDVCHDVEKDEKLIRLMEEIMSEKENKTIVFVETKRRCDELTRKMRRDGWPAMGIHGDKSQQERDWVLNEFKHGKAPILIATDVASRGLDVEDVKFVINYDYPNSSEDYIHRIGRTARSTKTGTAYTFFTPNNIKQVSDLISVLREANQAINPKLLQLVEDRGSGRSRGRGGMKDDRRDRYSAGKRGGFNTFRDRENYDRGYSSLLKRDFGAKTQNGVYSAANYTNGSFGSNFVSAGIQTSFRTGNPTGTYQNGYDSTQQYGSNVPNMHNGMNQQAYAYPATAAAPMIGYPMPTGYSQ
UniProt Q9TTF0: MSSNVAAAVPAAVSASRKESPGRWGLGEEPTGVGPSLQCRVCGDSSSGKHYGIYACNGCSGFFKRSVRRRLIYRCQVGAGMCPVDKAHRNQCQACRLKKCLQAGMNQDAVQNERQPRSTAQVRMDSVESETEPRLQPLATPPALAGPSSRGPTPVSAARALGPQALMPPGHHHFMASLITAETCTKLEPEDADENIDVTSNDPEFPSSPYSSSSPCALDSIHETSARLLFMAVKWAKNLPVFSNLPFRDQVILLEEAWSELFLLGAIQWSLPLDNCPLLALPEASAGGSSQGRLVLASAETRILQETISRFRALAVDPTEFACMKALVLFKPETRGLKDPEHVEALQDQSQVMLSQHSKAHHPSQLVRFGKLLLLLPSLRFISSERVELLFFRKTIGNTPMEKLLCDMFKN
UniProt P54846: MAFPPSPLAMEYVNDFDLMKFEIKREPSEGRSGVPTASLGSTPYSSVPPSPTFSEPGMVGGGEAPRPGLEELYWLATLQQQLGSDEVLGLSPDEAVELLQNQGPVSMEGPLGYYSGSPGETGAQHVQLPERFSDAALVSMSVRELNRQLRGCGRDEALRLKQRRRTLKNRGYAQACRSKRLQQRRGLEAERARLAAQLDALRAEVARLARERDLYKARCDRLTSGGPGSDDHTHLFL
UniProt O70133: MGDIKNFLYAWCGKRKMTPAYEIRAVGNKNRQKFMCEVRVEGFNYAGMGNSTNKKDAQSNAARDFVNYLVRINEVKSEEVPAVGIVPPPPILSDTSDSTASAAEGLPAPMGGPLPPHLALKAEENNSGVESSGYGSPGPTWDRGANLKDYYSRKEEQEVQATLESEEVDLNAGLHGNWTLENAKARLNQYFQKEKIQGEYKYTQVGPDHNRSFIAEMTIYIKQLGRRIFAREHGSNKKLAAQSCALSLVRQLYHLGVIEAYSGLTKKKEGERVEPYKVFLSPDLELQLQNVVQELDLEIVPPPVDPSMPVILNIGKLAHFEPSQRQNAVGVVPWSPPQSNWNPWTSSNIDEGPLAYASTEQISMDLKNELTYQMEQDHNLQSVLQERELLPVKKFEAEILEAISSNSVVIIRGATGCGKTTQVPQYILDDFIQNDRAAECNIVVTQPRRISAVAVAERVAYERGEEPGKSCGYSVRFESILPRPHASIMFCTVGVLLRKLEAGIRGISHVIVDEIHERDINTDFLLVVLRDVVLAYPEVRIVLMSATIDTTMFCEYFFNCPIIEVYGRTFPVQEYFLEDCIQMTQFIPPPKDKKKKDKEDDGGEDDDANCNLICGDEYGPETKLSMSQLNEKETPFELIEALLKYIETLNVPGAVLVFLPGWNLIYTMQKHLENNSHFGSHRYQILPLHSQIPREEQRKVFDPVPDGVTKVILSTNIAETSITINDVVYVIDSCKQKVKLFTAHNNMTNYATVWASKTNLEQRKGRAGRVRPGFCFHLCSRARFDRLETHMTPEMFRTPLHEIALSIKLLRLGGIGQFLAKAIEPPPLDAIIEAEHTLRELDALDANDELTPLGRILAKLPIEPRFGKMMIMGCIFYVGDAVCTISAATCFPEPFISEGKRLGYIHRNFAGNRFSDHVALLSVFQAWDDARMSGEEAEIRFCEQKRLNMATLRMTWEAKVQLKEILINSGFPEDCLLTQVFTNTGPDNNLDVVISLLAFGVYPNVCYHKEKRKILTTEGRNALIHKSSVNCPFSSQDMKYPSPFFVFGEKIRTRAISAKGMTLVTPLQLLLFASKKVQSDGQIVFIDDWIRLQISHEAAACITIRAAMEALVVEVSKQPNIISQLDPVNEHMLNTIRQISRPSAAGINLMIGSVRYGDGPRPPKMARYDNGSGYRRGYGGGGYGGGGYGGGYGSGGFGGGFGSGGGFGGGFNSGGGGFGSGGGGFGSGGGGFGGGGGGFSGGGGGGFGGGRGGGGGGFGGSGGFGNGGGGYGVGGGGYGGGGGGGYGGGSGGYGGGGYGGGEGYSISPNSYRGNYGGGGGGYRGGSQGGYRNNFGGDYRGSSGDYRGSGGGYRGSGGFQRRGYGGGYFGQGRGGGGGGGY

Molecular target: human NRL fused to GST (human) (UniProt P54845)
Test: affinity purification with mass spectrometry; GST-NRL on Glutathione Sepharose beads incubated 2 hr at 4°C with nuclear fraction from bovine retina; LC-MS-MS; n = 3, GST only as control; only the target purified

binding, binds:
HNRNPA1 (bovine retina) (from UniProt P09867 1-320)
DHX9 RNA helicase (bovine retina) (from UniProt Q28141 1-1287)
HNRNPA2B1 (bovine retina) (from UniProt Q2HJ60 1-341)

Molecular target: NRL (bovine retina) (bovine (endogenous in bovine retina)) (UniProt F1N4J1)
Test: affinity purification with mass spectrometry; bovine retinal nuclear extract, Sephacryl S-300 peaks of 650 and 450 kDa containing NRL, immunoprecipitated with NRL antibody/protein A beads overnight at 4°C; LC-MS-MS; IgG control

binding, binds:
CRX, cone rod homeobox (bovine retina) (from UniProt Q9XSK0 1-299)
DHX9 RNA helicase (bovine retina) (from UniProt Q28141 1-1287)
DDX5 (bovine retina) (from UniProt A0A3Q1M155 1-614)
NR2E3 (bovine retina) (from UniProt Q9TTF0 1-411)
B1

Molecular target: NRL (mouse retina) (mouse (endogenous in mouse retina)) (UniProt P54846)
Test: affinity purification with mass spectrometry; NRL co-IP from mouse retina nuclear extracts; LC-MS-MS; n = 2, IgG control

binding, binds:
DHX9 (mouse retina) (from UniProt O70133 1-1380)

Source: article doi:10.1101/2024.09.19.613899
